Assay results as given in the supplement of paper PMC6078165.
The reference is the same well before dosing, and untreated signal decays as well.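 Fibroblast labels name human fibroblasts: mostly primary ones from tissues such as uterus (C12385, HUF), lung (H6013), bone (Hs27A), adrenal (HADF) and skin (WS1), plus mammary HMF and breast cancer-associated Hs343T. The cancer cells are basal-like or mesenchymal-like triple-negative breast cancer lines. The paper calls a changed response a hit when it shifts by more than 3x the replicate standard deviation. The tissue of the other fibroblasts is not given here.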

System: Hs578T
Assay: relative JC-1 red fluorescence (viability) vs pre-drug, coculture with fibroblast (fraction); higher = more viable cancer cells
Description: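 JC-1 labelled TNBC cells cocultured 1:1 (1,500 cells each) with CellTrace Violet stained primary or stromal fibroblasts in 384-well plates in FluoroBrite medium, treated with one of 42 anticancer drugs at 0.1, 1, 10 or 100 uM. JC-1 red fluorescence (mitochondrial integrity in cancer cells only) was read by plate reader every 8 h for 72 h. Values are normalised to each well's pre-drug value. The stock of one drug was tenfold lower, so its dose labels may be too high.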

CO[C@@]12[C@H](COC(N)=O)C3=C(C(=O)C(C)=C(N)C3=O)N1C[C@@H]1N[C@@H]12 [Mitomycin C]
relative JC-1 red fluorescence
Details | 8 h | 16 h | 24 h | 32 h | 40 h | 48 h | 56 h | 64 h | 72 h
10 µM | 0.94 | 0.81 | 0.717 | 0.662 | 0.596 | 0.55 | 0.507 | 0.463 | 0.45
100 µM | 0.796 | 0.573 | 0.503 | 0.495 | 0.464 | 0.44 | 0.448 | 0.427 | 0.431

relative JC-1 red fluorescence
Details | 8 h | 16 h | 24 h | 32 h | 40 h | 48 h | 56 h | 64 h | 72 h
10 µM, coculture fibroblast: C12385 | 0.842 | 0.77 | 0.689 | 0.609 | 0.559 | 0.527 | 0.493 | 0.483 | 0.475
10 µM, coculture fibroblast: H6013 | 0.862 | 0.792 | 0.712 | 0.663 | 0.596 | 0.567 | 0.528 | 0.51 | 0.475
10 µM, coculture fibroblast: H6019 | 0.775 | 0.626 | 0.567 | 0.47 | 0.397 | 0.355 | 0.326 | 0.308 | 0.297
10 µM, coculture fibroblast: H6076 | 0.935 | 0.8 | 0.7274 | 0.694 | 0.631 | 0.6 | 0.545 | 0.508 | 0.482
10 µM, coculture fibroblast: H6231 | 0.917 | 0.812 | 0.735 | 0.7031 | 0.641 | 0.608 | 0.563 | 0.547 | 0.53
10 µM, coculture fibroblast: HADF | 0.916 | 0.861 | 0.788 | 0.717 | 0.651 | 0.605 | 0.563 | 0.524 | 0.5
10 µM, coculture fibroblast: HCFa | 0.8767 | 0.777 | 0.695 | 0.63 | 0.56 | 0.547 | 0.519 | 0.505 | 0.476
10 µM, coculture fibroblast: HCPF | 0.9347 | 0.8449 | 0.7494 | 0.7107 | 0.6411 | 0.6099 | 0.5866 | 0.551 | 0.5403
10 µM, coculture fibroblast: HHSteC | 0.911 | 0.805 | 0.735 | 0.697 | 0.63 | 0.597 | 0.565 | 0.529 | 0.493
10 µM, coculture fibroblast: HMF | 0.907 | 0.82 | 0.748 | 0.725 | 0.672 | 0.65 | 0.604 | 0.589 | 0.567
10 µM, coculture fibroblast: HPFa | 0.9486 | 0.839 | 0.784 | 0.734 | 0.693 | 0.68 | 0.643 | 0.627 | 0.596
10 µM, coculture fibroblast: HUF | 0.857 | 0.757 | 0.692 | 0.593 | 0.534 | 0.51 | 0.472 | 0.462 | 0.452
10 µM, coculture fibroblast: Hs27A | 0.879 | 0.825 | 0.78 | 0.742 | 0.697 | 0.682 | 0.653 | 0.641 | 0.613
10 µM, coculture fibroblast: Hs343T | 0.957 | 0.839 | 0.725 | 0.684 | 0.605 | 0.5652 | 0.504 | 0.465 | 0.433
10 µM, coculture fibroblast: WS1 | 0.84 | 0.7 | 0.646 | 0.548 | 0.478 | 0.455 | 0.412 | 0.405 | 0.398
100 µM, coculture fibroblast: C12385 | 0.681 | 0.543 | 0.531 | 0.441 | 0.413 | 0.406 | 0.402 | 0.413 | 0.418
100 µM, coculture fibroblast: H6013 | 0.74 | 0.612 | 0.546 | 0.512 | 0.498 | 0.491 | 0.48 | 0.478 | 0.459
100 µM, coculture fibroblast: H6019 | 0.649 | 0.4984 | 0.51 | 0.428 | 0.413 | 0.406 | 0.395 | 0.392 | 0.385
100 µM, coculture fibroblast: H6076 | 0.828 | 0.609 | 0.54 | 0.514 | 0.4692 | 0.4692 | 0.467 | 0.465 | 0.466
100 µM, coculture fibroblast: H6231 | 0.806 | 0.559 | 0.4625 | 0.457 | 0.416 | 0.4119 | 0.401 | 0.392 | 0.398
100 µM, coculture fibroblast: HADF | 0.819 | 0.697 | 0.626 | 0.587 | 0.567 | 0.559 | 0.539 | 0.536 | 0.505
100 µM, coculture fibroblast: HCFa | 0.772 | 0.639 | 0.589 | 0.571 | 0.578 | 0.579 | 0.552 | 0.552 | 0.525
100 µM, coculture fibroblast: HCPF | 0.836 | 0.5992 | 0.524 | 0.508 | 0.465 | 0.458 | 0.471 | 0.446 | 0.44
100 µM, coculture fibroblast: HHSteC | 0.7755 | 0.6103 | 0.539 | 0.4999 | 0.484 | 0.47 | 0.466 | 0.456 | 0.44
100 µM, coculture fibroblast: HMF | 0.8185 | 0.60837 | 0.508 | 0.489 | 0.45 | 0.434 | 0.434 | 0.429 | 0.435
100 µM, coculture fibroblast: HPFa | 0.784 | 0.654 | 0.609 | 0.582 | 0.586 | 0.581 | 0.562 | 0.557 | 0.535
100 µM, coculture fibroblast: HUF | 0.728 | 0.562 | 0.553 | 0.48 | 0.453 | 0.44 | 0.433 | 0.441 | 0.442
100 µM, coculture fibroblast: Hs27A | 0.761 | 0.65 | 0.5939 | 0.565 | 0.536 | 0.555 | 0.544 | 0.545 | 0.516
100 µM, coculture fibroblast: Hs343T | 0.831 | 0.617 | 0.519 | 0.505 | 0.46 | 0.457 | 0.46 | 0.459 | 0.46
100 µM, coculture fibroblast: WS1 | 0.686 | 0.556 | 0.554 | 0.476 | 0.449 | 0.446 | 0.44 | 0.454 | 0.456
